Test results: PubChem BioAssay AID2551 (National Center for Advancing Translational Sciences (NCATS), 2010)
Out of some 310,000 compounds screened, about 17,000 (5.5%) were called active. The shares of active, inactive and inconclusive entries below differ from those in the screen. Calls come from the whole dose curve; as a rule, active = well fitted inhibition curve with a large enough effect; inconclusive = small, poorly fitted or top-dose-only effect, or effect the other way; inactive = no such curve, though single readings can be large or run the other way. A potency beside an inconclusive call is a rough fit, not a confirmed value.

Protein sequences, listed by entry. Tags and fused reporters are not part of them. Lines headed by an entry give the natural chain unless they say otherwise; changes in a name come on top.
UniProt P51450: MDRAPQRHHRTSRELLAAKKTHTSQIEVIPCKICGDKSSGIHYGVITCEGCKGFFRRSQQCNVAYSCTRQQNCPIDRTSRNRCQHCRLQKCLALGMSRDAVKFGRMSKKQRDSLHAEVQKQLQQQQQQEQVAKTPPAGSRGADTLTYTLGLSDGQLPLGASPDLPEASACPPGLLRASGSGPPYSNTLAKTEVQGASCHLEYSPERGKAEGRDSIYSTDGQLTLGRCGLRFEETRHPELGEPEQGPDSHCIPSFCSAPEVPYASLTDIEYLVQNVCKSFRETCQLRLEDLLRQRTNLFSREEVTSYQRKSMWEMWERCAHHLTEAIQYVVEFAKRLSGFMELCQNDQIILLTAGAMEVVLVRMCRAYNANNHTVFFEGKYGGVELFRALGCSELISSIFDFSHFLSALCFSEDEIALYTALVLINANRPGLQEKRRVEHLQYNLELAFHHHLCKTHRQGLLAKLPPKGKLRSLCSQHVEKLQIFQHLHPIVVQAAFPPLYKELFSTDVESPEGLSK

Target: Nuclear receptor ROR-gamma (Mus musculus) (UniProt P51450)
Test: qHTS for inhibitors of ROR gamma transcriptional activity; note: nearly all actives have a fitted effect of over 60% in size
Settings: Drosophila S2 Gal4-RORgamma UAS-luciferase reporter, 20 h; series mostly up to 53.6 µM
Method in brief: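 Drosophila S2 cells stably expressing Gal4-DBD/mouse RORγ fusion under metallothionein promoter plus UAS-luciferase; compound 1 h, then 700 uM CuSO4 induction for 20 h at ambient temperature; inhibition read as reduced luminescence.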
Potency is the fitted concentration of half-maximal effect.

Potency, active:
COc1ccc(/C=C/C(=O)NC(=S)N2CCN(c3ccccn3)CC2)cc1OC 3.16 µM
Cn1c(=O)[nH]c(=O)c2c1nc(N1CCCCC1)n2C/C=N/Nc1ccc(C(=O)O)cc1 7.08 µM
Cc1cc(Br)cc(C)c1NC(=S)NC(=O)CC(C)C 4.47 µM
CSc1cccc(NC(=S)N2CCC(N(C)C3CCCCC3C)CC2)c1 (centres undefined) 12.6 µM
CCOC(=O)CNC(=O)Nc1nnc(-c2ccc(OCC)cc2)o1 3.16 µM
CC(C)N1C(=O)N(c2cccc(Cl)c2)C(C)(O)CC1(C)C (centres undefined) 7.94 µM
Cc1cc(C)c2ccc(/C=N/O)nc2c1O 3.16 µM
O=C(/C=C/c1ccc(O)cc1)c1cccs1 14.1 µM

Potency, inactive:
O=c1c(-c2cccc(Cl)c2)c[nH]n1-c1ccccc1
CC(C)n1c(SCC(=O)N2CCCCC2)nc2c1c(=O)n(C)c(=O)n2C
N#C/C(=C/c1cn[nH]c1-c1cccc(Br)c1)C(=O)O
CN(CC(=O)Nc1ccc(N2CCOCC2)cc1)CC(=O)Nc1ccc(N2CCOCC2)cc1
COc1cccc(N2CCN(c3ccc4nnc(CCC(=O)Nc5cccc(C(C)=O)c5)n4n3)CC2)c1
CC[C@H](C)[C@H](NC(=O)[C@H](Cc1cnc[nH]1)NC(=O)[C@@H](NC(=O)[C@H](CCCNC(=N)N)NC(=O)[C@H](CCCCN)NC(=O)[C@H](CCCNC(=N)N)NC(=O)[C@H](CCCCN)NC(=O)[C@@H](N)CC(N)=O)[C@@H](C)CC)C(=O)NCC(=O)N1CCC[C@H]1C(=O)NCC(=O)N[C@@H](CCCNC(=N)N)C(=O)N[C@@H](C)C(=O)N[C@@H](Cc1ccccc1)C(=O)N[C@@H](Cc1ccc(O)cc1)C(=O)N[C@H](C(=O)N[C@H](C(=O)N[C@@H](CCCCN)C(=O)N[C@@H](CC(N)=O)C(=O)N[C@H](C(=O)N[C@H](C(=O)NCC(=O)N[C@H](C(=O)N[C@H](C(=O)N[C@@H](CS)C(=O)O)[C@@H](C)CC)[C@@H](C)O)[C@@H](C)CC)[C@@H](C)CC)[C@@H](C)O)[C@@H](C)O

Potency, inconclusive:
COc1ccc(OCCn2cc(/C(N)=N/O)c3ccccc32)cc1 14.1 µM [activator, single point]
Cc1cc(C(=O)N2CCc3ccccc32)c2ccccc2n1 0.0794 µM [inhibitor, partial curve, poor fit]
O=C(Nc1cc2ccccc2oc1=O)c1ccccc1 6.31 µM [inhibitor, full curve, poor fit]
CCOC(=O)c1ccc(NC(=O)CN2C(=O)CSCC2=O)cc1 12.6 µM [activator, single point]
Clc1ccc(Sc2cc(Cl)c(-c3ccccc3)nn2)cc1 5.62 µM [inhibitor, single point]
Cc1cccc(-n2c(-c3ccncc3)n[nH]c2=S)c1 35.5 µM [inhibitor, single point]
Nn1c(SCC(=O)Nc2ccccc2C(F)(F)F)nncc1=O 4.47 µM [inhibitor, partial curve]
COc1ccc(Cc2nnc(-c3cccc(C)c3)o2)cc1OC 17.8 µM [activator, single point]
O=C(NCc1cccnc1)/C(=C/c1ccc(-c2cccc(C(F)(F)F)c2)o1)NC(=O)c1ccccc1 12.6 µM [activator, single point]
O=C(Nc1ccccc1C(=O)N/N=C/c1ccccc1)c1ccco1 14.1 µM [inhibitor, single point]
Cc1c(Br)c([N+](=O)[O-])nn1CC(=O)NCc1cccs1 20 µM [activator, single point]
COc1cc(CNC(C)c2ccccc2)cc(Br)c1OCc1ccccc1 (centres undefined) 22.4 µM [inhibitor, single point]
O=C(Nc1ccc(OC(F)(F)F)cc1)C1CCCN(S(=O)(=O)c2cccnc2)C1 (centres undefined) 15.8 µM [activator, partial curve]
Cc1nc2c(Cl)cc(Cl)cc2[nH]1 31.6 µM [inhibitor, single point]
O=C(COC(=O)C1CC2C=CC1C2)Nc1cccc(S(=O)(=O)N2CCCCCC2)c1 (centres undefined) 28.2 µM [activator, single point]
CN(C)C(=O)/C(=C/c1ccc(-c2cccc([N+](=O)[O-])c2)o1)NC(=O)c1ccccc1 14.1 µM [activator, single point]
Cc1ccc(/C=C2/NC(=O)N(Cc3ccc(Br)cc3)C2=O)o1 22.4 µM [inhibitor, single point]
CCCCn1c2ccccc2c2nnc(SCC(=O)NC3=NN=C(c4ccccc4)CS3)nc21 3.16 µM [inhibitor, single point]
O=C(c1cc2ccccc2o1)N1CCN(c2ccccn2)CC1 35.5 µM [activator, single point]
COc1ccc(CCNC(=O)c2cnc3ccccc3n2)cc1 20 µM [activator, partial curve]
N#CCSc1nnc(COc2ccccc2)n1-c1ccccc1 25.1 µM [activator, partial curve]
O=C(CN(C(=O)CNS(=O)(=O)c1ccc(F)cc1)c1ccc(F)cc1)NCc1ccco1 31.6 µM [activator, single point]
COc1ccc(NC(=O)COc2ccc(/C=N/O)cc2OC)cc1 7.94 µM [inhibitor, partial curve]
CN1c2ccc([N+](=O)[O-])cc2N(C)C1(C)c1ccccc1 (centres undefined) 22.4 µM [activator, single point]
CCCc1nc(SCC(=O)NCc2ccco2)c2c(=O)n(C)c(=O)n(C)c2n1 0.158 µM [inhibitor, full curve, poor fit]
